Test results: paper PMC9067507, “F/YGG-motif is an intrinsically disordered nucleic-acid binding motif”

Experiments:
Assay in all cases: MST
[1] = molecular target: T1, F/YGG Y to F peptide Y269F,Y276F,Y283F,Y287F,Y290F,Y295F (human) (UniProt P22626); conditions: 10 mM MgCl2, RNA titrated, text gives 10 uM; MST: 20 mM HEPES pH 7.5, 10 mM MgCl2, 0.05% Tween-20; 420 nM labelled U30 with protein titrated, or labelled peptide with RNA titrated; temperature not stated; protein details: fluorescent label
T1 sequence (looked up, limits assumed): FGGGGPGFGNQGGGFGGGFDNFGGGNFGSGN

[2] = molecular target: T2, F/YGG WT peptide (human) (UniProt P22626); conditions: 10 mM MgCl2, RNA titrated; MST: 20 mM HEPES pH 7.5, 10 mM MgCl2, 0.05% Tween-20; 420 nM labelled U30 with protein titrated, or labelled peptide with RNA titrated; temperature not stated; residues 269-299; protein details: fluorescent label
T2 sequence (looked up): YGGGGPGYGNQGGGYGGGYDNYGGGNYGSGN

[3] = molecular target: T3, F/YGG Y to A peptide Y269A,Y276A,Y283A,Y287A,Y290A,Y295A (human) (UniProt P22626); conditions: 10 mM MgCl2, RNA titrated, binding detected but too weak to measure; MST: 20 mM HEPES pH 7.5, 10 mM MgCl2, 0.05% Tween-20; 420 nM labelled U30 with protein titrated, or labelled peptide with RNA titrated; temperature not stated; protein details: fluorescent label
T3 sequence (looked up, limits assumed): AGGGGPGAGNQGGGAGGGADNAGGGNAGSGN

UUUUUUUUUUUUUUUUUUUUUUUUUUUUUU [U30 (unlabelled, titrated against peptide)]
Kd [1]: 11 µM | Kd [2]: 31 µM | binding result [3]: binds more weakly

Construct, isoform or probe ends are uncertain for at least one entry. For part of these data: A weaker result is weaker than the reference pair of the same experiment. For part of these data: At least one verdict was read from the data and is not stated in words by the source. Where a protein sequence is shown, tags need not be part of it.
